# Test results reported in patent publication US4327114A, “Substituted 1,8-dihydroxy-9-(10H)anthracenones” (Boehringer Ingelheim GmbH, priority 1980, dated 1982).
# Some compounds share one wording; it may come from a single statement.
# Tested on: skin (forearms of volunteer human test subjects)
# Test: Orienting skin compatibility in humans (ointments on forearm)
# Assay type: in vivo
# Details: 0.44% ointment
# Method: Ointments, each containing individually 0.44% of compounds […] and K were applied to the forearms of volunteer human test subjects, covered with bandage gauze and allowed to remain on the skin for 16 hours. After 16 hours the ointments were washed off with soap solution, and the skin irritation and discoloration, if any, were evaluated visually and photographed. Then, the test ointments were again administered and allowed to remain on the skin until the next day. Again, the reactions were evaluated and a new treatment was started.
row,Structure (SMILES),discoloration of the bandage gauze
1,"O=C1c2c(O)cccc2Cc2cccc(O)c21 [Compound A, 1,8-Dihydroxy-9-(10H)anthracenone]",irreversibly discolored violet
2,"O=C1c2c(O)ccc(Cl)c2Cc2c(Cl)ccc(O)c21 [Compound C, 4,5-Dichloro-1,8-dihydroxy-9-(10H)anthracenone]",no discoloration could be noticed
3,"CC(C)c1ccc(O)c2c1Cc1cccc(O)c1C2=O [Compound F, 1,8-Dihydroxy-4-isopropyl-9-(10H)anthracenone]",no discoloration could be noticed
4,"CC(C)(C)c1ccc2c(c1O)C(=O)c1c(ccc(C(C)(C)C)c1O)C2 [Compound K, 2,7-Di-tert. butyl-1,8-dihydroxy-9-(10H)anthracenone]",no discoloration could be noticed
5,"CC(C)(C)c1ccc2c(c1O)C(=O)c1c(O)cccc1C2 [D, 2-tert. Butyl-1,8-dihydroxy-9-(10H)anthracenone]",no discoloration could be noticed
6,"CCCCC(C)c1ccc2c(c1O)C(=O)c1c(O)cccc1C2 (stereo not shown) [E, 2-(2-Hexyl)-1,8-dihydroxy-9-(10H)anthracenone]",no discoloration could be noticed
7,"CC(C)c1cc(C(C)C)c2c(c1O)C(=O)c1c(O)cccc1C2 [G, 1,8-Dihydroxy-2,4-diisopropyl-9-(10H)anthracenone]",no discoloration could be noticed
